Hit rate of the full screen: of about 2,100 compounds, about 180 (8.6%) showed an effect of 50% or more. This is one part of the list.
The molecules below were run on MOLM1 and UCSD/AML1 (averaged) (assay: cell viability relative to DMSO control (POC); higher = less growth inhibition). Details: 1 µM; 72 h.
Procedure: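 Primary viability screen in the 3q26 EVI1-high AML cell lines MOLM1 and UCSD/AML1 (1.5e3 cells/well, 384-well), compounds at 1 uM for 72 h. ATP CellTiter-Glo read-out given as percent of viable cells over DMSO control (POC), averaged over duplicates. DMSO was the negative control and 5 uM etoposide the positive control. This mapping covers the MicroSource Spectrum and Selleck anticancer libraries (drug names).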

With `C[C@]12C=CC(=O)C=C1CC[C@@H]1[C@@H]2C(=O)C[C@@]2(C)[C@H]1CC[C@]2(O)C(=O)CO` [Prednisone (Adasone)] as the molecule, how does the cell viability read?
Its cell viability is 81.9%.

Which cell viability does the source give for `C[C@]12C=CC(=O)C=C1CC[C@@H]1[C@@H]2C(=O)C[C@@]2(C)[C@H]1CC[C@]2(O)C(=O)CO` here?
The cell viability was 94.2%.

Which cell viability does the source give for `CCOC(=O)CCC(=O)O[C@H]1[C@H](O[C@@H]2[C@@H](C)[C@H](O[C@H]3C[C@@](C)(OC)[C@@H](O)[C@H](C)O3)[C@@H](C)C(=O)O[C@H](CC)[C@@](C)(O)[C@H](O)[C@@H](C)C(=O)[C@H](C)C[C@@]2(C)O)O[C@H](C)C[C@@H]1N(C)C` here?
Its cell viability is 86%.

`CCn1cc(C(=O)O)c(=O)c2cc(F)c(N3CCNC(C)C3)c(F)c21` (centres undefined) was tested. Which cell viability did it give?
Its cell viability is 102%.

For `CS(=O)(=O)Nc1ccc([N+](=O)[O-])cc1Oc1ccccc1`, which cell viability is on record?
Its cell viability is 96.7%.

How did the cell viability turn out when `O=C(O)C1=CCNCC1` was run?
The cell viability was 102%.

For `CNC(=C[N+](=O)[O-])NCCSCc1csc(CN(C)C)n1`, which cell viability is on record?
Its cell viability is 97.4%.

Which cell viability does the source give for `OC(Cn1cncn1)(Cn1cncn1)c1ccc(F)cc1F` here?
The cell viability was 95.1%.

For `NCCc1c[nH]cn1`, which cell viability is on record?
Its cell viability is 101%.

`Nc1[nH]cnc2ncnc1-2` was tested. Which cell viability did it give?
Its cell viability is 88.6%.

How did the cell viability turn out when `CC(=O)[C@@]1(O)CC[C@H]2[C@@H]3C=C(Cl)C4=CC(=O)[C@@H]5C[C@@H]5[C@]4(C)[C@H]3CC[C@@]21C` was run?
The cell viability was 87.5%.

For `CC(=O)Nc1cccc(-n2c(=O)n(C3CC3)c(=O)c3c(Nc4ccc(I)cc4F)n(C)c(=O)c(C)c32)c1`, which cell viability is on record?
The cell viability was 27.3%.

`Cc1cn[nH]c1` was tested. Which cell viability did it give?
The cell viability was 101%.

`FC(F)(F)C(Cl)Br` (centres undefined) was tested. Which cell viability did it give?
The cell viability was 95.2%.

`O=C(O)CN1C(=O)c2cccc3cccc(c23)C1=O` was tested. Which cell viability did it give?
Its cell viability is 103%.

Which cell viability does the source give for `CC(=O)O[C@@H]1C[C@H]2C(C)(C)[C@@H](O)CC[C@]2(C)[C@H]2CC[C@@]3(C)[C@H](c4ccoc4)OC(=O)[C@H]4O[C@]43[C@@]21C` [beta-DIHYDROGEDUNOL] here?
Its cell viability is 90.3%.

`CCCCN(CCCC)CCCOC(=O)c1ccc(N)cc1` was tested. Which cell viability did it give?
Its cell viability is 103%.

How did the cell viability turn out when `Cc1ccc(C(=O)c2ccc(CC(=O)O)n2C)cc1` was run?
The cell viability was 107%.

How did the cell viability turn out when `COC(=O)Nc1nc2cc(C(=O)c3cccs3)ccc2[nH]1` [Nocodazole] was run?
The cell viability was 13.3%.

`CC(=O)OCC(=O)[C@@]1(O)CC[C@H]2[C@@H]3CCC4=CC(=O)CC[C@]4(C)[C@@]3(F)[C@@H](O)C[C@@]21C` was tested. Which cell viability did it give?
The cell viability was 102%.

Which cell viability does the source give for `O=C(O)CCCCCCCC(=O)O` here?
The cell viability was 92.1%.

Which cell viability does the source give for `CCCCCCCCCCCCCCCC(=O)OC/C=C(C)/C=C/C=C(C)/C=C/C1=C(C)CCCC1(C)C` here?
The cell viability was 100%.

How did the cell viability turn out when `CC(C)(C)c1cnc(CSc2cnc(NC(=O)C3CCNCC3)s2)o1` was run?
Its cell viability is 2.81%.

Which cell viability does the source give for `NS(=O)(=O)c1cc(C2(O)NC(=O)c3ccccc32)ccc1Cl` (centres undefined) here?
Its cell viability is 100%.

With `Cc1ncc(C[n+]2csc(CCO)c2C)c(N)n1` as the molecule, how does the cell viability read?
Its cell viability is 107%.

Which cell viability does the source give for `CC(C)c1c(C(=O)Nc2ccccc2)c(-c2ccccc2)c(-c2ccc(F)cc2)n1CC[C@@H](O)C[C@@H](O)CC(=O)O` here?
Its cell viability is 95.5%.

For `CC(=O)OCC(=O)[C@@]1(O)CC[C@H]2[C@@H]3CCC4=CC(=O)CC[C@]4(C)[C@H]3[C@@H](O)C[C@@]21C`, which cell viability is on record?
The cell viability was 86%.

`CCCc1cc(C(N)=S)ccn1` was tested. Which cell viability did it give?
Its cell viability is 107%.

How did the cell viability turn out when `C#Cc1cccc(Nc2ncnc3cc(OC)c(OCCCCCCC(=O)NO)cc23)c1` was run?
Its cell viability is 22.2%.

Which cell viability does the source give for `CC(=O)S[C@@H]1CC2=CC(=O)CC[C@]2(C)[C@H]2CC[C@@]3(C)[C@@H](CC[C@@]34CCC(=O)O4)[C@H]12` here?
The cell viability was 98.5%.

Which cell viability does the source give for `CC(Cc1cccc(C(F)(F)F)c1)NCCOC(=O)c1ccccc1` (centres undefined) here?
The cell viability was 111%.

How did the cell viability turn out when `C=C1CC[C@H](O)C/C1=C/C=C1\CCC[C@]2(C)[C@@H]([C@H](C)CCCC(C)C)CC[C@@H]12` was run?
Its cell viability is 109%.

`NNCCc1ccccc1` was tested. Which cell viability did it give?
Its cell viability is 112%.

For `CC(C)(CO)[C@@H](O)C(=O)NCCC(=O)NCCSSCCNC(=O)CCNC(=O)[C@H](O)C(C)(C)CO`, which cell viability is on record?
The cell viability was 103%.

With `C[C@H]1O[C@H](O[C@H]2[C@H](O)[C@@H](O)[C@@H](O[C@H]3[C@H](O)[C@@H](O)C(O)O[C@@H]3CO)O[C@@H]2CO)[C@H](O)[C@@H](O)[C@@H]1N[C@H]1C=C(CO)[C@@H](O)[C@H](O)[C@H]1O` (some centres undefined) as the molecule, how does the cell viability read?
The cell viability was 87.3%.

`CN1CCN(CC/C=C2/c3ccccc3Sc3ccc(S(=O)(=O)N(C)C)cc32)CC1` was tested. Which cell viability did it give?
Its cell viability is 119%.

`CN1CCC(=C2c3ccccc3C=Cc3ccccc32)CC1` was tested. Which cell viability did it give?
Its cell viability is 87%.

For `COc1ccc2c(=O)c(OC)c(-c3ccccc3)oc2c1`, which cell viability is on record?
The cell viability was 89.8%.

For `N=C(N)NC(=N)NCCc1ccccc1`, which cell viability is on record?
Its cell viability is 86.5%.

How did the cell viability turn out when `CC(=O)OCC(=O)[C@@]1(O)[C@@H](C)C[C@H]2[C@@H]3CCC4=CC(=O)C=C[C@]4(C)[C@@]3(F)[C@@H](O)C[C@@]21C` was run?
The cell viability was 70.1%.

`CC(=O)Oc1ccc2c(c1OC(C)=O)OCC1(O)Cc3c(cc(OC(C)=O)c(OC(C)=O)c3OC(C)=O)C21` (centres undefined) was tested. Which cell viability did it give?
The cell viability was 108%.

How did the cell viability turn out when `CC[C@H](/C=C/[C@@H](C)[C@H]1CC[C@H]2[C@@H]3CC=C4C[C@@H](O)CC[C@]4(C)[C@H]3CC[C@]12C)C(C)C` was run?
Its cell viability is 107%.

Which cell viability does the source give for `O=C(O)c1cn(-c2ccc(F)cc2)c2cc(N3CCNCC3)c(F)cc2c1=O` here?
Its cell viability is 103%.

`C[N+]1(C)CCC(OC(=O)C(O)(c2ccccc2)C2CCCC2)C1` (centres undefined) was tested. Which cell viability did it give?
Its cell viability is 98.8%.

Which cell viability does the source give for `CCCCCCCCCCCCCCCCCCOCC(O)CO` (centres undefined) here?
Its cell viability is 85%.

`N#Cc1ccc(C(c2ccc(C#N)cc2)n2cncn2)cc1` [Letrozole] was tested. Which cell viability did it give?
The cell viability was 96.4%.

Which cell viability does the source give for `CCCCCc1c2c(cc(O)c1C(=O)O)OC(=O)c1c(cc(OC)cc1C(=O)CCCC)O2` here?
The cell viability was 114%.

With `COc1c2occc2cc2ccc(=O)oc12` as the molecule, how does the cell viability read?
Its cell viability is 95.5%.

With `N=C(NCCCCCCNC(=N)NC(=N)Nc1ccc(Cl)cc1)NC(=N)Nc1ccc(Cl)cc1` as the molecule, how does the cell viability read?
The cell viability was 102%.

For `COC(=O)c1cc(O)c(=O)c2c(O)c(O)ccc2c1`, which cell viability is on record?
The cell viability was 109%.

With `Oc1cc(O)c2c(c1)O[C@H](c1ccc(O)c(O)c1)[C@@H](O)C2` as the molecule, how does the cell viability read?
Its cell viability is 99.3%.

`CCN(CC)CCOC(=O)C1(C2CCCCC2)CCCCC1` was tested. Which cell viability did it give?
The cell viability was 89.7%.

With `O=c1cc(-c2ccccc2)oc2c(O)c(O)ccc12` as the molecule, how does the cell viability read?
Its cell viability is 96.2%.

How did the cell viability turn out when `COc1ccc([C@@H]2CC(=O)c3c(O)cc(O)cc3O2)cc1O` was run?
The cell viability was 108%.

With `CN(C)CCCN1c2ccccc2Sc2ccc(C(F)(F)F)cc21` as the molecule, how does the cell viability read?
The cell viability was 92.6%.

`COc1ccc(-c2ccc3c(N4CCOC[C@@H]4C)nc(N4CCOC[C@@H]4C)nc3n2)cc1CO` was tested. Which cell viability did it give?
Its cell viability is 23.6%.

How did the cell viability turn out when `Cc1ccc(N(CC2=NCCN2)c2cccc(O)c2)cc1` was run?
The cell viability was 88.5%.

`Cc1ccc(S(=O)(=O)C=CC#N)cc1` was tested. Which cell viability did it give?
The cell viability was 1.01%.

`O=C(O)c1ccccc1-c1c2cc(I)c(=O)c(I)c-2oc2c(I)c(O)c(I)cc12` was tested. Which cell viability did it give?
Its cell viability is 77.6%.

Reference: the supplement of paper PMC11150407
